No constants are given. Whether binding was seen depends on the method and setting. In cells and extracts the contact can be indirect. These calls come from enrichment with a bait or labelling near it, and not all partners need be listed. Blank lines part the entries; values can stand above or below the molecule they belong to.
Columns and labels:
[1] = target: CPNA2-HA (AtCpn60α2 with an HA tag at the C-terminus, from 35Spro:CPNA2-HA) (Arabidopsis thaliana) (UniProt Q56XV8); test: affinity purification with mass spectrometry; anti-HA microbeads (μMACS HA isolation kit) on lysates of chloroplasts from 7 DAG seedlings of 35Spro:CPNA2-HA or 35Spro:CPNA1-HA plants; 50 mM Tris-HCl pH 8.0, 10 mM ADP, 150 mM NaCl, 2.5 h at 4°C; washes with Triton X-100, deoxycholate and 5 mM ADP; SDS-PAGE and LC-MS/MS; two replicates; wild-type seedlings as control
[2] = target: CPNA1-HA (AtCpn60α1 with an HA tag at the C-terminus, from 35Spro:CPNA1-HA) (Arabidopsis thaliana) (UniProt P21238); test: as above

Sequences of proteins named here, by UniProt entry; tags and fusion partners are left off. A change or cut given only in a name is not applied to a line headed by its entry. Residues count along the entry.
UniProt Q56XV8, residues 33-575: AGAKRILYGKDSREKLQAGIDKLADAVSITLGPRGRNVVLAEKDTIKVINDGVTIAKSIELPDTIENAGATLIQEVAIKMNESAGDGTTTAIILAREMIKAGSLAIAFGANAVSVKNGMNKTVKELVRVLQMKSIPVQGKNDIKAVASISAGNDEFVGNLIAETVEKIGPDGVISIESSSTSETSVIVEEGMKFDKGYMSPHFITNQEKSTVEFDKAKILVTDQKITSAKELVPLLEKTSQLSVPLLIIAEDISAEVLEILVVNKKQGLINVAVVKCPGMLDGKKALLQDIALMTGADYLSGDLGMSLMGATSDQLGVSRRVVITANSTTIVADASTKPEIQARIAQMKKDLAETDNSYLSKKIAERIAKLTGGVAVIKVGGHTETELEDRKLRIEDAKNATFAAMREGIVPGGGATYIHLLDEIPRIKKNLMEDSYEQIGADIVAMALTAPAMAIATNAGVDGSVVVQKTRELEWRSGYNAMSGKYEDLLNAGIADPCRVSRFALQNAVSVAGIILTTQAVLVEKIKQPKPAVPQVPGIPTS
UniProt P21238, residues 47-586: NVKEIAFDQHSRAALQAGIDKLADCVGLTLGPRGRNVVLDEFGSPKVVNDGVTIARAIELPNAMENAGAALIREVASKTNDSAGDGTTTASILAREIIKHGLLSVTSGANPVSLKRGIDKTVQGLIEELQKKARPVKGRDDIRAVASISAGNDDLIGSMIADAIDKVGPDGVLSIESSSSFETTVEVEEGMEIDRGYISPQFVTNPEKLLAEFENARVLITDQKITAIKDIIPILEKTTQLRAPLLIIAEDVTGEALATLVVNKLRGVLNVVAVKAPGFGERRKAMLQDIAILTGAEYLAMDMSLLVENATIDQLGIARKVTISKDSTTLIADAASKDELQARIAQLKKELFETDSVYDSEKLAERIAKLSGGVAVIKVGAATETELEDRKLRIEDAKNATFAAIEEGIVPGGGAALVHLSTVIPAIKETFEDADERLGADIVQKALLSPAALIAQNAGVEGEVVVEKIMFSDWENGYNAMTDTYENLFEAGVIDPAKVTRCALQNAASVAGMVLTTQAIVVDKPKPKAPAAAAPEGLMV
UniProt P21240: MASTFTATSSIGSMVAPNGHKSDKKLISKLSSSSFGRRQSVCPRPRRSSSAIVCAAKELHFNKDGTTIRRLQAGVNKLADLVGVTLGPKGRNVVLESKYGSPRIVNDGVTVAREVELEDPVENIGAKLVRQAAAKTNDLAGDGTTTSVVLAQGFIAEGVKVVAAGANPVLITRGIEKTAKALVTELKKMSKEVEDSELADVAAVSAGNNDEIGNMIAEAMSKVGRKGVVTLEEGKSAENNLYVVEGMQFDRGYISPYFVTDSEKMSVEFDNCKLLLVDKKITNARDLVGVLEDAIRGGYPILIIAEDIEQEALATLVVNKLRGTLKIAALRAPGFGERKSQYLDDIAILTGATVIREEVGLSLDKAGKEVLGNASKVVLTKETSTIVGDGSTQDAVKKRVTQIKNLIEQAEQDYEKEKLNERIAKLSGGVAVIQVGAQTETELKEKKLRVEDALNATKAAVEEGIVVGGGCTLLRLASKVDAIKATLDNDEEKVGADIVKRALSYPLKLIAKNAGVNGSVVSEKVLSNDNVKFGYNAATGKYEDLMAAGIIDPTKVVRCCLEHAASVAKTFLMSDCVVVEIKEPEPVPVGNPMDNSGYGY
UniProt Q9LJE4: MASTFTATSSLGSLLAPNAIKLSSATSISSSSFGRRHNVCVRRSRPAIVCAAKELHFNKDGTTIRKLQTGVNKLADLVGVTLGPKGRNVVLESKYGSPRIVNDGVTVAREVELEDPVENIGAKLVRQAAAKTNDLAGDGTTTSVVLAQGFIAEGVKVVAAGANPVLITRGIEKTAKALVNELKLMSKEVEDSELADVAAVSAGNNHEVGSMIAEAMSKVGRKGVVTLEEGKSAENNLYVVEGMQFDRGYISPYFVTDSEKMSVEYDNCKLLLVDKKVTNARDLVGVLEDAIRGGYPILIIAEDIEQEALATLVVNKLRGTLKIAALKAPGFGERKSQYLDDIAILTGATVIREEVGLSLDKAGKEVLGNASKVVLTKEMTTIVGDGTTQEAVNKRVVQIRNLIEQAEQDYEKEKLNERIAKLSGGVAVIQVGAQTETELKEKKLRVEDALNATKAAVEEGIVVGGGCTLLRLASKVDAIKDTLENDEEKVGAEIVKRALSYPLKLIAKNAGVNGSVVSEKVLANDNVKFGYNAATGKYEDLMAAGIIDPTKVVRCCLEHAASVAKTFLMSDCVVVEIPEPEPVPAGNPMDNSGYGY
UniProt C0Z361: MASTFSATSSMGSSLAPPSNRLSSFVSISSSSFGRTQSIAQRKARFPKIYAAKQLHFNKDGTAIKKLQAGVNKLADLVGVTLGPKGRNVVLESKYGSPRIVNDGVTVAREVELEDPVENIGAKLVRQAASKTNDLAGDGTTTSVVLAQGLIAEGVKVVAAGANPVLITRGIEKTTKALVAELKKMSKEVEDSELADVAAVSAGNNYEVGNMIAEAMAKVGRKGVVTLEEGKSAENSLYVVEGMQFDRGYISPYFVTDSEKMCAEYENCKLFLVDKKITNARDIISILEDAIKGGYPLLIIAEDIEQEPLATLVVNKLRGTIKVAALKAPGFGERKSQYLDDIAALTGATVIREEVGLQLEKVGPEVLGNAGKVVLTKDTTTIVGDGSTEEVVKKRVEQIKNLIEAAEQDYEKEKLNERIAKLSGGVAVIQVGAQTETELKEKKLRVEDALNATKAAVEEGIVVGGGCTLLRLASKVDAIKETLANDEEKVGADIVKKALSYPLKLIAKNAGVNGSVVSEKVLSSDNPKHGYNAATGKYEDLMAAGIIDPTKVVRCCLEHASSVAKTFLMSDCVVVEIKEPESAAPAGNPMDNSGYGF
UniProt Q9C667: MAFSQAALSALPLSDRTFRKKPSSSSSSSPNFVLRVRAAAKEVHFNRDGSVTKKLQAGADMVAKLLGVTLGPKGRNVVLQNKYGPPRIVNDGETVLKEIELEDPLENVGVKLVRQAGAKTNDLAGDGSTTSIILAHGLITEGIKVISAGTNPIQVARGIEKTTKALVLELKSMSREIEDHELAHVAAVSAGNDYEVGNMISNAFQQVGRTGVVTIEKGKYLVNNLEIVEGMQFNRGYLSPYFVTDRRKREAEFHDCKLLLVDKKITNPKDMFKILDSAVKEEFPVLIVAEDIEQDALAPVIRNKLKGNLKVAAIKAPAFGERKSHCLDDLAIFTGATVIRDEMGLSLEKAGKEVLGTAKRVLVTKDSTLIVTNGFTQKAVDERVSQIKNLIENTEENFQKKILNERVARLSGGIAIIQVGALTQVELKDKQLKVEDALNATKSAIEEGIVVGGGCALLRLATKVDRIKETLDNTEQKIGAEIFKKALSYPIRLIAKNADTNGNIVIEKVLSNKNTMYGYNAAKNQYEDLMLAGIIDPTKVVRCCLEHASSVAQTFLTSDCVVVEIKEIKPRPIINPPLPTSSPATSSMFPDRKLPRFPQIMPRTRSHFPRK

binding [1]: binds
Molecule: CPNA1 (AtCpn60α1), endogenous (from UniProt P21238 47-586)

binding [2]: binds
binding [1]: binds
Molecule: CPNB1 (AtCpn60β1), endogenous (from UniProt P21240)

binding [2]: binds
binding [1]: binds
Molecule: CPNB2 (AtCpn60β2), endogenous (from UniProt Q9LJE4)

binding [1]: binds
Molecule: CPNB3 (AtCpn60β3), endogenous (from UniProt C0Z361)

binding [1]: binds
Molecule: CPNB4 (AtCpn60β4), endogenous (from UniProt Q9C667)

binding [1]: binds
B1: KASI (β-ketoacyl-[acyl carrier protein] synthase I), endogenous (protein, UniProt P52410 47-473)
chain: ASTVSAPKRETDPKKRVVITGMGLVSVFGNDVDAYYEKLLSGESGISLIDRFDASKFPTRFGGQIRGFSSEGYIDGKNERRLDDCLKYCIVAGKKALESANLGGDKLNTIDKRKAGVLVGTGMGGLTVFSEGVQNLIEKGHRRISPFFIPYAITNMGSALLAIDLGLMGPNYSISTACATSNYCFYAAANHIRRGEADMMIAGGTEAAIIPIGLGGFVACRALSQRNDDPQTASRPWDKARDGFVMGEGAGVLVMESLEHAMKRGAPIVAEYLGGAVNCDAHHMTDPRADGLGVSSCIERCLEDAGVSPEEVNYINAHATSTLAGDLAEINAIKKVFKSTSGIKINATKSMIGHCLGAAGGLEAIATVKAINTGWLHPSINQFNPEQAVDFDTVPNEKKQHEVDVAISNSFGFGGHNSVVAFSAFKP

— PMC5636168
